According to article PMC8263706:
Results are given in words; binding and its absence hold for the method and conditions named. Binding seen in cells or lysates may run through a third protein. Tags and fused reporters may be left off the sequences shown.

Molecular target: T1, MAGNESIUM-PROTOPORPHYRIN IX METHYL … (MgPMT), BiFC fusion (UniProt Q9SW18)
T1 sequence: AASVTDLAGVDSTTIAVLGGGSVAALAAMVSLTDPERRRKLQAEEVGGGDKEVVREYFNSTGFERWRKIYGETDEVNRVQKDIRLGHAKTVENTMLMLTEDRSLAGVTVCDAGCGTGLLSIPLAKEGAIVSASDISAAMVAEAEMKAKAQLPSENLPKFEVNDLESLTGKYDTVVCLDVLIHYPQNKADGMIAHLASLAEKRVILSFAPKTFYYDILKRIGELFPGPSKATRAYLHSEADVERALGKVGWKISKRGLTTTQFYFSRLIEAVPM
Test: split reporter; nYFP and cYFP fusions expressed in N. benthamiana leaves by agroinfiltration; YFP signals examined by CLSM in protoplasts

- binding: no binding
B1: CPP1, BiFC fusion (nYFP or cYFP) (protein, UniProt Q9FN50 49-258)
chain: TVDSSYGGNVPTFPRTRVWDPYKRLGVSPYASEEEIWASRNFLLQQYAGHERSEESIEGAFEKLLMSSFIRRKKTKINLKSKLKKKVEESPPWLKALLDFVEMPPMDTIFRRLFLFAFMGGWSIMNSAEGGPAFQVAVSLAACVYFLNEKTKSLGRACLIGIGALVAGWFCGSLIIPMIPTFLIQPTWTLELLTSLVAYVFLFLSCTFLK
